Test results taken from article PMC10448307.
Results are given in words; binding and its absence hold for the method and conditions named. Binding seen in cells or lysates may run through a third protein. Some results given as binding are weak or reduced against the parent protein; the word gives no strength.

The chains behind the UniProt entries cited, without tags or fusion partners.
UniProt Q03347: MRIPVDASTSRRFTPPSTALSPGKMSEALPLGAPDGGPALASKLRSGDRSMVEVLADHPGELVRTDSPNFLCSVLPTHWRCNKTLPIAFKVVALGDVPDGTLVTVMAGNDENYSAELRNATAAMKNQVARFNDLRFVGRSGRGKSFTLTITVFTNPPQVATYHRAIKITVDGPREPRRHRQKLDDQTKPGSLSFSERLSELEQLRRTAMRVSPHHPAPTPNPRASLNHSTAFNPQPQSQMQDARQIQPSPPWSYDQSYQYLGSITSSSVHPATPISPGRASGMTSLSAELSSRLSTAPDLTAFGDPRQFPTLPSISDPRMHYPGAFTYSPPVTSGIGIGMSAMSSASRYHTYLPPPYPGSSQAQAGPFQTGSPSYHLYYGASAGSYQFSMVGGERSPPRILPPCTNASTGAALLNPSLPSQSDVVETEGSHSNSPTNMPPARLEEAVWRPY

Molecular target: T1, Forkhead box protein P3 (FOXP3) (mouse (endogenous in primary mouse CD4+ T and CD19+ B lymphocytes)) (UniProt Q99JB6)
T1 sequence: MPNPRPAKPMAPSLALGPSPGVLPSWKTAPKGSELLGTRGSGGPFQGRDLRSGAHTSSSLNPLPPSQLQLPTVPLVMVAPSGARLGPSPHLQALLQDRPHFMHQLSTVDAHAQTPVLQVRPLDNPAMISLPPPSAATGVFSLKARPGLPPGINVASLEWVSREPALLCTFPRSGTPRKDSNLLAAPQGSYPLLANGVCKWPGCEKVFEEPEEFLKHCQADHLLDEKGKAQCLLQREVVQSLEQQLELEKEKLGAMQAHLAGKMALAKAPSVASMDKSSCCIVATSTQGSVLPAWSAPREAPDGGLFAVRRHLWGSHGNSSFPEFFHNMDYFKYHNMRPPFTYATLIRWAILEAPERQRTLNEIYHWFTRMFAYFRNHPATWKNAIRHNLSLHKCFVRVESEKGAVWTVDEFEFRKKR
Assay: co-IP; lysates (IP buffer, sonicated) of mouse CD4+ T and CD19+ B cells; anti-FOXP3, anti-RUNX1 or IgG antibody with Protein A + G magnetic beads, 4 °C overnight; western blot

- binding: binds
Substance: RUNX family transcription factor 1 (RUNX1) (from UniProt Q03347 1-451)
